Experimental data reported in the supplement of paper PMC3334620.
In all, about 33,000 sequences were measured (“E-score (-0.5 to 0.5)”: median about -0.016, highest 2% from about 0.3 on). The list shows a part of the results.

target: T1, Yer184c (UniProt P39961); experiment: PBM E-score (8-mer binding enrichment) (E-score (-0.5 to 0.5)); higher = stronger / more preferred TF binding; conditions: protein concentration: 100 nM; construct: GST-full length
T1 sequence: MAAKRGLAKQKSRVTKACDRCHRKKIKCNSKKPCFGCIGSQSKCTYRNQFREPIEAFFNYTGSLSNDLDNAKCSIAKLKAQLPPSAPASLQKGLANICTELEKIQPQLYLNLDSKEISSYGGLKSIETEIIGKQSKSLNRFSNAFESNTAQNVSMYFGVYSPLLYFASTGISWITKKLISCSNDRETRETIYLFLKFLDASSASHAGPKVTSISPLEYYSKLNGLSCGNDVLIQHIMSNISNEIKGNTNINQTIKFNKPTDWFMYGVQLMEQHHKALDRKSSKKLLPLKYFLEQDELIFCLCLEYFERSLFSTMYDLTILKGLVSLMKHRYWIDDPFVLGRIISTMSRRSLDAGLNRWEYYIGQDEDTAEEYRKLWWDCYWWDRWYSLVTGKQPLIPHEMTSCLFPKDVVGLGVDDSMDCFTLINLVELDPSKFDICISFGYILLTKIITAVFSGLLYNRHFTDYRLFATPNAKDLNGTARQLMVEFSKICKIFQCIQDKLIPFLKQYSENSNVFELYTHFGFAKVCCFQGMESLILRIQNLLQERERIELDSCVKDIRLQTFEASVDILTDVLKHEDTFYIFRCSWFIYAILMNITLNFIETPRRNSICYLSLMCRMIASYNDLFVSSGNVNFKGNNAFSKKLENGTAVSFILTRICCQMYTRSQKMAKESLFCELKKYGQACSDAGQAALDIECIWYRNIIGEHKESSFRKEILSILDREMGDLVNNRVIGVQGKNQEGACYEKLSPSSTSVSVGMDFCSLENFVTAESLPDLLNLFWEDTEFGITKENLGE
How it was run: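 Detection of bound protein used fluorescent anti-GST, with scans normalised by masliner. The proteins were GST-tagged yeast transcription factors applied at about 100-200 nM to universal all-10-mer Agilent arrays made double-stranded by primer extension. Each ungapped eight-base word, pooled with its reverse complement, was scored with an E-score from the Universal PBM Analysis Suite.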

Sequence	PBM E-score
ATGAAAAT	0.23
CAGTTCAG	-0.178
AAAATTAC	0.127
AAGGCGAG	-0.251
GTTGAAAA	0.222
ACAGTTTA	0.0256
CAAGTCAC	-0.137
GAGCACCC	-0.141
GGGGATAC	-0.171
CAGATTTC	0.0402
GCGCACAC	-0.073
CGCAACGC	0.0474
CCTCGATA	0.135
AGTCTGGA	-0.0956
AACAAACG	-0.00974
GCTTCCTA	0.0691
TCTCTACA	-0.112
GCGGTCCC	0.11
AGGCACGA	-0.249
CAGAGAAC	-0.0289
TTAGGGAA	-0.0204
ATGAAAGC	-0.00062
CACGCCTA	-0.263
CCTAGAGC	-0.182
CGGATTAC	0.172

Retrieved one by one from the list above:
Sequence	PBM E-score
AAAATTAC	0.127
GTTGAAAA	0.222

Taken from above for reference:
Sequence	PBM E-score
CCTCGATA	0.135
AGTCTGGA	-0.0956
AACAAACG	-0.00974

Next part.

Sequence	PBM E-score
GGCTTTCA	0.027
CGTTGGAG	-0.144
GTTTCACA	0.193
ACGTGCCC	-0.238
GACTGCCA	-0.018
GCCGCCCA	-0.0434
AGTCAAAG	0.0505
ACGCACAA	0.00486
AATGAAGG	-0.114
GATCATAC	0.00835
AGGAATGG	-0.131
AGACTTCC	-0.172
AATACACC	0.106
CGACCTAG	-0.0304
GCTTGAAA	0.0857
GCGCTTCC	0.131
ATAACGTC	0.0632
GCCCCAAA	-0.218
GGCAGACA	0.0287
TCGCTTCA	-0.0589
CTTTGTCA	0.111
ACCGCAAG	-0.0152
ATTGACTC	0.0736
ATGTTCGA	-0.0724
GTCAGGGA	-0.261

Sequence	PBM E-score
TACGGATA	0.195
GCTCGGTA	0.129
AGCATAAC	0.0223
ATACAAGC	0.0194
CGACTGGC	-0.0997
ACTTTATA	0.167
ACATGTGA	-0.0633
CAGGGTGG	-0.265
CTGTTGAC	-0.0978
CAAAATAA	0.103
ACGTCCTC	-0.192
AGATACGC	-0.0782
CACATATC	-0.117
ATCTGAGA	-0.103
GATGACCA	-0.0988
ATTCTACC	0.133
ACGTAAAG	-0.0848
AGTATTGA	-0.00576
CCTCTGCG	-0.202
AAACGACA	0.0459
CGAATTGA	0.136
GATTGCAC	0.0569
CTCCACCC	-0.241
TGTGAAAA	0.178
AAGGAACT	-0.0398

Sequence	PBM E-score
ACATATAG	0.11
GATCAGGA	0.0362
GATAGATA	0.141
ACAGGACT	-0.0866
AAGATGGT	0.0328
AAGGCGGG	-0.301
CTCAGCCC	-0.179
GTCGCTCA	-0.0541
TCCTTCAA	0.0519
ACGATGTG	0.0895
TCCATCCA	-0.178
AGCTACGA	-0.157
CATTCTCC	-0.0087
CGATTTTC	0.211
ACGCGTCG	0.147
CGCGTGTA	-0.0652
CCTAGTCC	-0.285
TCTGTACA	0.189
AGATCTGA	0.0192
TGGACAAA	0.0864
CCACTGAC	-0.186
ACAGTTCG	0.142
AATTCGAC	-0.211
CGCACCGA	-0.204
CCGTTTCG	0.192

Sequence	PBM E-score
GATATCAC	-0.03
CGTTGCAC	0.126
ACTATTTC	0.204
ACCCCCCG	-0.164
GACTAGTA	-0.12
CACTGTCG	-0.192
GGCCAGCC	-0.143
ACAAGCTC	0.121
CGAAGGAC	-0.0127
ATTTATTA	0.216
TTTGAAAA	0.267
AATCAGAA	0.0533
GGACTGAC	-0.197
ATCTCCAT	-0.15
AATTTGAG	0.0647
AGGGGTAA	-0.276
AACACCGG	0.37
CGAGGCGC	0.0833
AACCGGGG	-0.0803
AATGACGC	-0.137
GACGCGCA	-0.0382
AGTGAGCA	-0.0113
ATCGAGAG	-0.0983
CGAACCGC	0.189
TATCATAA	0.111

Sequence	PBM E-score
CGACGCGC	0.163
CTTGTGCA	-0.0491
AGAGCGTA	-0.225
TACGATGA	-0.078
ACCCTACC	-0.206
CCTGTAGC	-0.24
CTCTGGGC	-0.0695
GCCTTAAC	-0.171
CAAAACTA	0.28
AATCCTCA	-0.0565
AAGCTGCC	-0.0481
CGCTATCA	-0.0816
GGATCGAA	0.0975
CAACCGTA	-0.247
AAATAGCG	0.0568
GACGCACC	-0.155
AGGCCTAA	0.0613
AACTCCCA	-0.0901
ACACCTTG	-0.0975
CCCCTGTC	-0.361
CCGTTTTC	0.136
ATAATATG	0.132
ACCTTGTA	-0.102
CACGAAAA	0.118
GTCGGTGA	-0.0943

Sequence	PBM E-score
GATCCCTA	-0.21
CTCCGCTA	-0.195
AAGTCCGC	0.0399
GCTACCGA	0.0575
CGCCTGCC	-0.0886
AGGTCCGG	0.172
ACAGAACG	-0.113
ACGCTGCA	-0.148
CCGAGAAC	0.277
AGGATCCA	-0.173
AAGCTCAT	-0.0896
GCTCTCAC	-0.194
CCTCACCC	-0.122
GCAAATCA	-0.00983
ATATCGTC	0.0866
AACCTCTT	0.178
AACGCTAC	-0.175
CGGTAGAC	0.136
AACGTCCT	-0.149
AATTGCGA	-0.0921
TAACACAA	0.16
AGACAAGA	0.137
